Results as given in PubChem BioAssay AID248 (DTP/NCI, 2004).
The list does not hold the whole screen: it gathers tests that were run many times, whatever their T/C, doses with no T/C, and many T/C values between a quarter and a half above the control. Other doses and runs of a compound stand elsewhere. T/C: endpoint of the treated group in % of that of the vehicle group. Some doses have a count of surviving animals in place of a T/C: the source files T/C as zero there, which appears to mark a toxic dose or a test without result, not a measured value. Some doses without a T/C left all or most animals alive at the check, yet need not have been tolerated: survival well below the control is almost never listed, so the zero probably covers shortened survival too. Survivors were counted at the toxicity check, usually on the fifth day, unless a day is given; later deaths do not show. Schedule codes are those of the source, read here as Q, the interval in days (D) or hours (H), X, the number of doses. Counts like (3×) stand for listed records that agree. Some entries were tested several times; the results are listed from low to high. Some schedules carry Z or #; the key to these is not given. For survival time, this PubChem deposit counts one and a half times the control or more as active, and values a quarter to a half above the control carry no call in these data; other NCI protocols may use other cut-offs. Some T/C values carry the count of animals alive at the toxicity check (mostly the fifth day); where none is given, no animal had died by that day.

Test system: L1210 leukemia ip in BDF1 mice, survival T/C
Test: NCI In Vivo Anticancer Drug Screen. Data for tumor model L1210 Leukemia (intraperitoneal) in B6D2F1 (BDF1) mice
Conditions: T/C endpoint: mean survival time, higher T/C = longer survival
[1] = dose: 200.0 mg/kg/injection, schedule: Q01DX001 (ip), vehicle: carboxymethylcellulose (CMC)
[2] = dose: 400.0 mg/kg/injection, schedule: Q01DX001 (ip), vehicle: carboxymethylcellulose (CMC)
[3] = dose: 300.0 mg/kg/injection, schedule: Q01DX001 (ip), vehicle: saline
[4] = dose: 200.0 mg/kg/injection, schedule: Q01DX001 (ip), vehicle: saline
[5] = dose: 400.0 mg/kg/injection, schedule: Q01DX001 (ip), vehicle: saline
[6] = dose: 200.0 mg/kg/injection, schedule: Q04DX003 (ip), vehicle: saline
[7] = dose: 400.0 mg/kg/injection, schedule: Q04DX003 (ip), vehicle: saline
[8] = dose: 400.0 mg/kg/injection, schedule: Q04DX003 (ip), vehicle: Klucel (hydroxypropylcellulose) (HPC)

## CCOC(=O)C(Cc1ccc(N(CCCl)CCCl)cc1)NP1(=O)NCCCO1 (stereo not given)
dose: 4.0 mg/kg/injection, schedule: Q01DX015 (ip), vehicle: carboxymethylcellulose (CMC)
  T/C: 134 % of control
dose: 7.0 mg/kg/injection, schedule: Q01DX015 (ip), vehicle: carboxymethylcellulose (CMC)
  T/C: 140 % of control
dose: 10.5 mg/kg/injection, schedule: Q01DX015 (ip), vehicle: other
  T/C: 136 % of control
dose: 28.0 mg/kg/injection, schedule: Q01DX015 (ip), vehicle: carboxymethylcellulose (CMC)
  T/C: 127 % of control
dose: 48.24 mg/kg/injection, schedule: Q01DX015 (ip), vehicle: carboxymethylcellulose (CMC)
  T/C: 127 % of control
dose: 50.0 mg/kg/injection, schedule: Q01DX001 (ip), vehicle: carboxymethylcellulose (CMC)
  T/C: 128 % of control
dose: 80.0 mg/kg/injection, schedule: Q01DX015 (ip), vehicle: carboxymethylcellulose (CMC)
  survivor count: 4 of 6
dose: 80.4 mg/kg/injection, schedule: Q01DX015 (ip), vehicle: carboxymethylcellulose (CMC)
  T/C: 148 % of control [5 of 6 alive]
dose: 134.0 mg/kg/injection, schedule: Q01DX015 (ip), vehicle: carboxymethylcellulose (CMC)
  survivor count: 0 of 6 and 6 of 6
dose: 177.6 mg/kg/injection, schedule: Q01DX001 (ip), vehicle: carboxymethylcellulose (CMC)
  T/C: 137 % of control
[1]
  T/C: 125 % of control
dose: 200.0 mg/kg/injection, schedule: Q01DX001 (ip), vehicle: other
  survivor count: 3 of 4
dose: 266.8 mg/kg/injection, schedule: Q01DX001 (ip), vehicle: carboxymethylcellulose (CMC)
  T/C: 140 % of control
[2]
  T/C: 133 % of control
dose: 400.0 mg/kg/injection, schedule: Q01DX001 (ip), vehicle: other
  survivor count: 2 of 4
dose: 600.0 mg/kg/injection, schedule: Q01DX001 (ip), vehicle: carboxymethylcellulose (CMC)
  survivor count: 1 of 4

## O=C(Nc1ccc(Cl)c(Cl)c1)Nc1ccc(Oc2ccc(Cl)cc2Cl)cc1S(=O)(=O)O
dose: 400.0 mg/kg/injection, schedule: Q04DX003 (ip), vehicle: alcohol
  survivor count: 4 of 6

## CCNC(=S)S.[Zn+2]
dose: 100.0 mg/kg/injection, schedule: Q01DX001 (ip), vehicle: carboxymethylcellulose (CMC)
  survivor count: 0 of 6
[1]
  survivor count: 1 of 6
[2]
  survivor count: 0 of 6

## N=C(N)c1ncn(C2CCCC2)c1N
[3]
  survivor count: 0 of 6

## NC(N)=N/N=C/c1ccncc1
dose: 225.0 mg/kg/injection, schedule: Q01DX009 (ip), vehicle: saline
  survivor count: 1 of 3
dose: 480.0 mg/kg/injection, schedule: Q01DX Z (oral), vehicle: saline
  survivor count: 1 of 6

## C=C(C)C(=O)OCC(O)C[N+](C)(C)C (stereo not given)
[3]
  survivor count: 2 of 6

## CCCc1ccc(O)c(O)c1
dose: 80.0 mg/kg/injection, schedule: Q01DX009 (ip), vehicle: saline
  survivor count: 1 of 6
dose: 100.0 mg/kg/injection, schedule: Q01DX001 (ip), vehicle: saline
  survivor count: 2 of 6
[4]
  survivor count: 0 of 6
[5]
  survivor count: 0 of 6

## NCCCc1nc(N)nc(N)c1-c1ccc(Cl)cc1
[6]
  survivor count: 0 of 6
[7]
  survivor count: 0 of 6

## CCOc1c(C(=O)O)cnc2ccccc12
dose: 150.0 mg/kg/injection, schedule: Q01DX001 (ip), vehicle: saline
  survivor count: 3 of 6
[3]
  survivor count: 0 of 6

## CCCCN(CCCC)CCNc1ccc(C)c2sc3ccccc3c(=O)c12
dose: 900.0 mg/kg/injection, schedule: Q01DX Z (ip), vehicle: carboxymethylcellulose (CMC)
  survivor count: 4 of 6

## CNCC(C)(C)c1ccccc1
dose: 200.0 mg/kg/injection, schedule: Q01DX009 (ip), vehicle: saline
  survivor count: 0 of 6
[6]
  survivor count: 0 of 4
dose: 400.0 mg/kg/injection, schedule: Q01DX009 (ip), vehicle: saline
  survivor count: 0 of 6
[7]
  survivor count: 0 of 4

## CCOC(=O)c1ccc(N2C(N)=NC(N)=NC2(C)C)cc1
[6]
  survivor count: 6 of 6
[7]
  survivor count: 0 of 6

## CCCNC(=O)Oc1cccc2cccnc12
dose: 400.0 mg/kg/injection, schedule: Q01DX009 (ip), vehicle: Klucel (hydroxypropylcellulose) (HPC)
  survivor count: 2 of 6
dose: 400.0 mg/kg/injection, schedule: Q04DX002 (ip), vehicle: Klucel (hydroxypropylcellulose) (HPC)
  survivor count: 3 of 3 and 6 of 6

## Oc1cc2c(O)cccc2c2ccccc12
dose: 400.0 mg/kg/injection, schedule: Q04DX003 (ip), vehicle: saline with Tween-80
  survivor count: 0 of 6

## CCOC(=O)/C=C/N1CC1C (stereo not given)
dose: 100.0 mg/kg/injection, schedule: Q04DX003 (ip), vehicle: Klucel (hydroxypropylcellulose) (HPC)
  survivor count: 6 of 6 (2×)
dose: 200.0 mg/kg/injection, schedule: Q04DX003 (ip), vehicle: Klucel (hydroxypropylcellulose) (HPC)
  survivor count: 0 of 6 and 1 of 6
[8]
  survivor count: 0 of 6 (2×)

## Oc1c(CN2CCCC2)cc(Nc2nccc(/C=C/c3ccc(Cl)cc3)n2)cc1CN1CCCC1
[4]
  survivor count: 2 of 6

## CCSC(=N)N=Nc1ccc(O)cc1
[5]
  survivor count: 0 of 4

## COCCCN=C(N)c1ccc(NC(=O)c2ccc(C(=O)Nc3ccc(C(N)=NCCCOC)cc3)c(Cl)c2)cc1
dose: 1.88 mg/kg/injection, schedule: Q01DX Z (ip), vehicle: saline
  T/C: 129 % of control
dose: 3.75 mg/kg/injection, schedule: Q01DX Z (ip), vehicle: saline
  T/C: 143 % of control [5 of 6 alive]
dose: 30.0 mg/kg/injection, schedule: Q01DX Z (ip), vehicle: saline
  survivor count: 1 of 6
dose: 60.0 mg/kg/injection, schedule: Q01DX Z (ip), vehicle: saline
  survivor count: 0 of 6
dose: 120.0 mg/kg/injection, schedule: Q01DX Z (ip), vehicle: saline
  survivor count: 0 of 6

## O=C(O)C1(C(=O)O)C=CCCC1
dose: 400.0 mg/kg/injection, schedule: Q01DX009 (ip), vehicle: saline + alcohol
  survivor count: 2 of 6

## O=[N+]([O-])c1cc(S(=O)(=O)F)ccc1S
[8]
  survivor count: 0 of 6

## NC(=O)/C=C\C(N)=O
dose: 25.0 mg/kg/injection, schedule: Q01DX009 (ip), vehicle: saline
  survivor count: 6 of 6
